Test [1] deals with T1, FLAG-tagged Ballchen (BALL) (Drosophila) (UniProt Q7KRY6).
T1 sequence: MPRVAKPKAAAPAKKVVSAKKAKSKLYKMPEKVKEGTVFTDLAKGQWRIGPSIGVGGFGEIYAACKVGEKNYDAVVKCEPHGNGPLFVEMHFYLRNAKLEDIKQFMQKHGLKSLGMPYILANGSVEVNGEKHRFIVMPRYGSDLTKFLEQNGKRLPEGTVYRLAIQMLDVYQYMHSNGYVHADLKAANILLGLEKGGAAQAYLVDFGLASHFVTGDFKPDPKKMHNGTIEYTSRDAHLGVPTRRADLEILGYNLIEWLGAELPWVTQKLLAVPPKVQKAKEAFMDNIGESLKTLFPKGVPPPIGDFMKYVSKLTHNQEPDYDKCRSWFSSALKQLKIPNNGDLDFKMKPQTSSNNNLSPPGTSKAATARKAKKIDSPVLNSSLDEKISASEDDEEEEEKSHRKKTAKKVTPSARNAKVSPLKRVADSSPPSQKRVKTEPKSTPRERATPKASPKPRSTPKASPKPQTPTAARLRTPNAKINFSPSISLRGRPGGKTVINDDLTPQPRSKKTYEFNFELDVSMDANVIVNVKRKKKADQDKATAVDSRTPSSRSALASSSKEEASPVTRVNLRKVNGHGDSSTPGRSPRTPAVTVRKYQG
The test can be described thus: co-IP; lysate of S2 cells expressing BALL-FLAG on M2-FLAG agarose beads, 1 h; lysis buffer 140 mM NaCl, 20 mM Tris pH 7.4, 1 mM EDTA, 0.5% NP40, 10% glycerol; blot for endogenous CBP; empty vector cells as control.

Protein sequences, listed by entry. Tags and fused reporters are not part of them.
UniProt Q9W321: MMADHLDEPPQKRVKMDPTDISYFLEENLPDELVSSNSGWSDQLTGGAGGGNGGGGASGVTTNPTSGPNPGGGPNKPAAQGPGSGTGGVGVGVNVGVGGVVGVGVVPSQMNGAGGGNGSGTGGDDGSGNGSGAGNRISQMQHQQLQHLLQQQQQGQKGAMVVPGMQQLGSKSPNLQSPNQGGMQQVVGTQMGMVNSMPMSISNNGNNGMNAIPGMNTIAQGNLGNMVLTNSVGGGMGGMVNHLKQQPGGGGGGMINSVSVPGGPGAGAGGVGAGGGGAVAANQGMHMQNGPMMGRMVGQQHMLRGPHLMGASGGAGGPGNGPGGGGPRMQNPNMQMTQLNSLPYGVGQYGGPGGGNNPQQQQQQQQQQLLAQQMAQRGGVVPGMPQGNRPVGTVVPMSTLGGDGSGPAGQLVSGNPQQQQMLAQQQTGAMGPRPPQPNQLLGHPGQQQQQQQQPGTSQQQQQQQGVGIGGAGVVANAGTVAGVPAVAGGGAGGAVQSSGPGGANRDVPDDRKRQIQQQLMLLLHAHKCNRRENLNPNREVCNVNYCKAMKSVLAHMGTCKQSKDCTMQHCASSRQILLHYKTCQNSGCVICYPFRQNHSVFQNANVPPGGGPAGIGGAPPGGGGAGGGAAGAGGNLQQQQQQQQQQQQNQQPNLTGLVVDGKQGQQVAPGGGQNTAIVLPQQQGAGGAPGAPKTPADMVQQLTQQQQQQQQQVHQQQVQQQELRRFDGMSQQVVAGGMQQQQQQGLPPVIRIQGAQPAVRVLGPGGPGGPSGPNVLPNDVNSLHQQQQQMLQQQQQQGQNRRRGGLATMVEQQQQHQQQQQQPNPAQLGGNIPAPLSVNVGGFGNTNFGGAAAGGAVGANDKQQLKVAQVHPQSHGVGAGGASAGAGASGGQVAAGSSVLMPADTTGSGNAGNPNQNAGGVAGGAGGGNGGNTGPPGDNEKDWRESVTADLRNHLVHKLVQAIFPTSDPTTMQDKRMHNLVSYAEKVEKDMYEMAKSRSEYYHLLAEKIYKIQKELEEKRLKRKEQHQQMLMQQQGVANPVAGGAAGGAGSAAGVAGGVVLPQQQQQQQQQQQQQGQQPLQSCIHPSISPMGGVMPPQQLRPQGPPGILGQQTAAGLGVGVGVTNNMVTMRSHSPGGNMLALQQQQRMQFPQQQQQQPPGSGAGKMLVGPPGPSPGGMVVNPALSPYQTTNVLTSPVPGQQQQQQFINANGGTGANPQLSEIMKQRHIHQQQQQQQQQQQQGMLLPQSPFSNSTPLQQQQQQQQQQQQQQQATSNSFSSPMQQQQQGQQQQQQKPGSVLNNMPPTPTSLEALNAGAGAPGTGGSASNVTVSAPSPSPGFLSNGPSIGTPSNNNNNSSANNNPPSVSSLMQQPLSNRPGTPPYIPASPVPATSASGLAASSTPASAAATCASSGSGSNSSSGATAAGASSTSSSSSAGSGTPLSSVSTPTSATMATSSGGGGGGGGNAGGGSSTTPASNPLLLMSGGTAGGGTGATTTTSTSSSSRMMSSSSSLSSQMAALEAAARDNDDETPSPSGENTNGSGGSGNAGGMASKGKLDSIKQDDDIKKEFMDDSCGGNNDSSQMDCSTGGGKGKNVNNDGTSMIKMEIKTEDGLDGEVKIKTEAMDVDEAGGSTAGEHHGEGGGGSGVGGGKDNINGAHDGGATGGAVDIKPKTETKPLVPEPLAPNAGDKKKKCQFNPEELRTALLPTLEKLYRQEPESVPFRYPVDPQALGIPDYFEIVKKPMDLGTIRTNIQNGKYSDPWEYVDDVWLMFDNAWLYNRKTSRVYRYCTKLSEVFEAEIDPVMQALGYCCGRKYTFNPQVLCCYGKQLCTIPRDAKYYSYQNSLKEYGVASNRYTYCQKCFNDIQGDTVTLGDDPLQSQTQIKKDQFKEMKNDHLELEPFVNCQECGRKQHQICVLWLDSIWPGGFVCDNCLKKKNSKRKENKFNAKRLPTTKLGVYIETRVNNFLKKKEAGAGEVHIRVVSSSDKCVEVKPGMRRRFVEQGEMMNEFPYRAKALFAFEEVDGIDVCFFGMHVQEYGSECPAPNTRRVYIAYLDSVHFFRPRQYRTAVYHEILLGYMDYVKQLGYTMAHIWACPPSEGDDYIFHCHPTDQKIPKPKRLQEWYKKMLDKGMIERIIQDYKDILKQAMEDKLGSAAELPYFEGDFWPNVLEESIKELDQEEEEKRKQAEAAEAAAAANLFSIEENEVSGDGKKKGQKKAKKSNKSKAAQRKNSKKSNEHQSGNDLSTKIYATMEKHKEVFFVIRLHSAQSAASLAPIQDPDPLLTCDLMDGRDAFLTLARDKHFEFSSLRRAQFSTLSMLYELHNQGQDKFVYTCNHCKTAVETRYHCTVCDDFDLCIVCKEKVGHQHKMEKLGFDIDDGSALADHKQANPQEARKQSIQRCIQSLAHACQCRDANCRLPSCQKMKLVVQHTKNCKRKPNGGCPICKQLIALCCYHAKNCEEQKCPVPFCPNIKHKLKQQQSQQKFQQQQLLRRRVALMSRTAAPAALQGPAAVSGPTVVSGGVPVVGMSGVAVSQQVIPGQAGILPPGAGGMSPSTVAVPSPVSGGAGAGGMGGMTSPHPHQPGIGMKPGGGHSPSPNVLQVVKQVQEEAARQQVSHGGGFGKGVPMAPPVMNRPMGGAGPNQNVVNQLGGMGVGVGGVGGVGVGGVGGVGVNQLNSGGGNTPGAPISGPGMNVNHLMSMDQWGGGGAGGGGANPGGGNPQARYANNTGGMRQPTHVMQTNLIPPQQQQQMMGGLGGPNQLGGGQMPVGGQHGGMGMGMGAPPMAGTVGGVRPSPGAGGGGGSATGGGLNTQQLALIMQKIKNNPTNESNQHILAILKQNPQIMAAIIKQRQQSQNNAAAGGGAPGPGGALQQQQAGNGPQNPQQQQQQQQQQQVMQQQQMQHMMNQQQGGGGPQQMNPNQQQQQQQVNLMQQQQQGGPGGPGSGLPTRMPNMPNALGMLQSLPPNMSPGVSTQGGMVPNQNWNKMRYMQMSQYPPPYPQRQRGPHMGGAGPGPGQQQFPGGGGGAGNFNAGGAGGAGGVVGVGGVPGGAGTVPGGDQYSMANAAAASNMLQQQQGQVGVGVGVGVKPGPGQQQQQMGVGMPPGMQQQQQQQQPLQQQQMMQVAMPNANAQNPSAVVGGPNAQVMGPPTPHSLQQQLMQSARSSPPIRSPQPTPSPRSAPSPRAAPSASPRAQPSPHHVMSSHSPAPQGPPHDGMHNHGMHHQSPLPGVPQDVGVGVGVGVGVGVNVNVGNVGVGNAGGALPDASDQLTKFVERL

In test [2] the target is CREB binding protein (CBP) (Drosophila (endogenous in S2 cells)) (UniProt Q9W321). The test can be described thus: co-IP; reciprocal: anti-CBP serum on Protein A and G Dyna beads, incubated with S2 cell lysate 1 h at 4°C; blot for BALL-FLAG; mock IP as control.

Results are given in words; binding and its absence hold for the method and conditions named. In cells and extracts the contact can be indirect. Some binding calls cover weakened binding; strength is not graded here. Sequences can lack the tags named with a protein.

“CREB binding protein (CBP) (from UniProt Q9W321 1-3276) (enzyme)”: the binding entry in test [1] is “binds”.

B1: FLAG-tagged Ballchen (BALL) (enzyme, UniProt Q7KRY6 1-599)
chain: T1 sequence
Turning to B1, in test [2], the binding result is reported as “binds”.
